Results deposited as PubChem BioAssay AID1259405 (NCATS, 2018).

Purpose: 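Knock-downs that lift recombinant protein yield in hamster ovary cells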 (primary screen)
Cell system: Chinese hamster CHO-K1 ovary cells with stable secreted eGFP expression
Knock-down reagent: single siRNA against mouse genes, 0.8 pmol siRNA per well (2 µl of 400 nM stock)
Duration: 3 days
Read-out: 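Percent of the per-plate non-targeting control median for intracellular GFP per well by laser scanning cytometry and for cell viability by ATP luminescence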
Direction: GFP, % of control: higher = more GFP per well, higher productivity; viability (ATP), % of control: higher = more viable cells (more ATP)
Active means: 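a knock-down is called active if GFP reaches 120% or more of non-targeting control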
This is a random part of about 50,000 deposited reagents. Over the whole deposit, about 4,000 (8%) are marked active. 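Mouse siRNA library applied to hamster cells; one well for each siRNA.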 Reagents against one gene are numbered here. Reagent sequences are not shown.

gene,reagent no.,"GFP, % of control","viability (ATP), % of control",Outcome
Trhr,1,74,80.4,inactive
Trhr,2,51.9,75,inactive
Trhr,3,73.2,87.1,inactive
Vta1,1,93.1,97,inactive
Vta1,2,24.6,42.4,inactive
Vta1,3,79.2,57.6,inactive
Man2a1,1,134,116,active
Man2a1,2,104,125,inactive
Man2a1,3,69.6,75.2,inactive
Armcx6,1,83.1,67,inactive
Armcx6,2,73.9,89.7,inactive
Armcx6,3,99.7,66.6,inactive
Col19a1,1,62,57.8,inactive
Col19a1,2,42.6,30.8,inactive
Col19a1,3,83.1,47.6,inactive
Bcl2,1,77.8,53.1,inactive
Bcl2,2,66,80.7,inactive
Taldo1,1,148,111,active
Taldo1,2,133,128,active
Taldo1,3,117,118,inactive
Polr3e,1,77.7,75.1,inactive
Polr3e,2,63.1,67,inactive
Polr3e,3,51.7,62.4,inactive
Zmynd8,1,96.1,96.3,inactive
Zmynd8,2,149,119,active
Nfrkb,1,46.2,50.1,inactive
Nfrkb,2,85.3,109,inactive
Nfrkb,3,65,75.9,inactive
Cyp4a31,1,122,77.7,active
Cyp4a31,2,88.8,72.5,inactive
Cyp4a31,3,87.3,101,inactive
Mpg,1,104,81.4,inactive
Mpg,2,66.3,67.3,inactive
Mpg,3,59.2,57.1,inactive
Snx32,1,72.2,74.9,inactive
Snx32,2,54.7,53.3,inactive
Snx32,3,121,75.5,active
Olfm2,1,96.1,50.7,inactive
Olfm2,2,93.4,87.4,inactive
Olfm2,3,73.5,88.5,inactive
A930012O16Rik,1,104,68.3,inactive
A930012O16Rik,2,89.8,93.1,inactive
A930012O16Rik,3,90.6,67.3,inactive
Cfap57,1,99.4,95,inactive
Cfap57,2,51.5,71.1,inactive
Cfap57,3,94.1,67.2,inactive
Orc5,1,67.3,70.5,inactive
Orc5,2,71.5,75.5,inactive
Orc5,3,68.3,85.2,inactive
Smim29,1,135,99,active
Smim29,2,94.4,93.6,inactive
Smim29,3,104,94.2,inactive
Or10g3b,1,35.2,30.8,inactive
Or10g3b,2,85,93.6,inactive
Or10g3b,3,58.4,55.7,inactive
Dhx32,1,125,95.3,active
Dhx32,2,131,136,active
Dhx32,3,121,93,active
Fshr,1,105,77,inactive
Fshr,2,78.5,73,inactive
Fshr,3,82.4,88.4,inactive
Pik3ip1,1,76.7,99.7,inactive
Pik3ip1,2,69.1,92.2,inactive
Pik3ip1,3,83.2,46.4,inactive
Gcgr,1,75.1,73.5,inactive
Gcgr,2,56.4,43.5,inactive
Gcgr,3,38.9,45.3,inactive
S100a1,1,66.6,107,inactive
S100a1,2,77.8,78.3,inactive
Gjb5,1,92.9,75.8,inactive
Gjb5,2,114,99.1,inactive
Gjb5,3,110,132,inactive
Hgf,1,79.1,106,inactive
Hgf,2,100,49.4,inactive
Hgf,3,70.8,78.4,inactive
Dxo,1,77.9,86.8,inactive
Dxo,2,68.2,90.6,inactive
Dxo,3,60,86.7,inactive
Gpn3,1,105,129,inactive
Gpn3,2,75.2,83.5,inactive
Gpn3,3,64.4,68.9,inactive
Mark2,1,73.8,91.5,inactive
Mark2,2,116,76.5,inactive
Mark2,3,69.6,93.6,inactive

As entered above:
Value of Hgf #3 under “Outcome”: inactive
Vta1 #2, Outcome → inactive
S100a1 #2, GFP, % of control: 77.8
Under “viability (ATP), % of control”, Cyp4a31 #3 has 101
Result for Fshr #2 in “Outcome”: inactive
Result for Nfrkb #1 in “viability (ATP), % of control”: 50.1
